For two substances, binding results are on record in PMC6587271.

Chains of the proteins cited; added tags and fusions are not shown. Residues count along the entry.
UniProt O95831, residues 102-613: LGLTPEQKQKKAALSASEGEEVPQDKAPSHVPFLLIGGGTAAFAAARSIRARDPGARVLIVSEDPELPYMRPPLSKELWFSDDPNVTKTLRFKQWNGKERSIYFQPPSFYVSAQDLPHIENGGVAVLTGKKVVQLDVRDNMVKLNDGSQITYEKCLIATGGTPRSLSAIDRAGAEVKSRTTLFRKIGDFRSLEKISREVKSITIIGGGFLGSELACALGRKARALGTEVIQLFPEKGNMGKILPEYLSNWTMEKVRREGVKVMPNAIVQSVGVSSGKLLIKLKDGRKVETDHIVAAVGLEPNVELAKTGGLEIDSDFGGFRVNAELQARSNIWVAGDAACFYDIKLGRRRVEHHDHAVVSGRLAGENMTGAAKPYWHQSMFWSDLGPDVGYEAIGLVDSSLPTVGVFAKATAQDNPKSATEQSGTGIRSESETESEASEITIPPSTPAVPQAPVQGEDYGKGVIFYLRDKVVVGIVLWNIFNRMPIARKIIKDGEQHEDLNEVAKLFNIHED

Results are given in words; binding and its absence hold for the method and conditions named. In cells and extracts the contact can be indirect. Some results given as binding are weak or reduced against the parent protein; the word gives no strength. For part of these data: Tags and fused reporters may be left off the sequences shown.

Assay [1] concerns the target T1, HA-S-tagged CHTM1 (Coiled-coil Helix Tumor and Metabolism 1), exogenous, in 293T cells (human) (UniProt Q9BSY4).
T1 sequence: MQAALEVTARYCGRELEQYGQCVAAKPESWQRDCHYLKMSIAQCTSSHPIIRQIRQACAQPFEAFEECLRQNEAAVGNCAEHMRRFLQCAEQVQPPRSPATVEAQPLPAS
The assay can be described thus: pull-down; S-tag pull-down of exogenous HA-tagged CHTM1 from 293T cells; endogenous AIF1 detected by Western blot. For orientation: A western blot detects proteins with antibodies after separation by electrophoresis.

The target of assay [2] is T2, CHTM1 (Coiled-coil Helix Tumor and Metabolism 1), endogenous in A549 cells (human (endogenous in A549)) (UniProt Q9BSY4).
T2 sequence: T1 sequence
Nature of the assay: co-IP; immunoprecipitation from A549 cells, endogenous CHTM1 and endogenous AIF1, Western blot.

Assay [3] has as its target T3, HA-S-tagged CHTM1, transiently transfected in A549 cells (human) (UniProt Q9BSY4).
T3 sequence: T1 sequence
Nature of the assay: pull-down; S-tag pull-down from A549 cells transiently transfected with HA-S-tagged CHTM1 or vector-only, cultured in the presence or absence of glucose/glutamine for 4 h; Western blot.

As to “Apoptosis Inducing Factor 1 (AIF1), endogenous in 293T cells (from UniProt O95831 102-613)”, in assay [1], the binding entry is reported as “binds”. Take “Apoptosis Inducing Factor 1 (AIF1), endogenous in A549 cells (from UniProt O95831 102-613)”: the binding entry in assay [2] and in assay [3] was “binds” in each case.
